Measurements reported in PubChem BioAssay AID504784 (Drosophila RNAi Screening Center, 2011).
The deposit covers about 17,000 reagents; this is a random part of those with a known target gene and a result. 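Each column is one replicate's B-score; the combined score over replicates was not deposited, so single values may mislead.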 Names joined by + are all predicted targets of the reagent. No sequences are given here.

Assay: 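Genome-wide knock-down for genes giving too much or too little stored lipid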 (primary screen)
System: Drosophila Kc167 embryonic cells
Reagents: long dsRNA against Drosophila genes, about 250 ng dsRNA per well
Time to read-out: 4 days
Conditions: cells fed 400 µM oleic acid bound to BSA
Measured: 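Microscope images give a droplet-to-nucleus area ratio, taken as log and converted to a screen-wide B-score; higher values mean greater lipid storage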
Direction: droplet/nuclear area B-score: higher = more stored lipid (overstorage)

| predicted target | amplicon | droplet/nuclear area B-score, replicate 1 | droplet/nuclear area B-score, replicate 2 | droplet/nuclear area B-score, replicate 3 |
| --- | --- | --- | --- | --- |
| CG15765 | DRSC18071 | 0.53 | -0.59 | 0.935 |
| CG15765 | DRSC23026 | -0.889 | -0.027 | – |
| CG31462 (retired record) | DRSC14359 | -0.0658 | -0.101 | – |
| CG31288 | DRSC14667 | -0.365 | 0.252 | – |
| Hat1 | DRSC12298 | -0.586 | -1.09 | – |
| dyw | DRSC18228 | -0.226 | -0.832 | – |
| CG45002 | DRSC20144 | -2.31 | -0.00311 | – |
| Reph | DRSC00634 | 1.23 | -0.531 | – |
| Reph | DRSC22031 | 0.456 | -0.615 | – |
| CG10140 | DRSC09704 | -1.53 | -0.683 | – |
| CG33255 (retired record) + hpRNA:CR32205 | DRSC09610 | -1.05 | -0.502 | – |
| CG33255 (retired record) + hpRNA:CR32205 | DRSC09611 | -0.519 | 0.624 | – |
| Map205 | DRSC16732 | -3.88 | – | – |
| CG9896 | DRSC03962 | 2.27 | -0.8 | – |
| CG9896 | DRSC04594 | 0.47 | -0.185 | – |
| LBR | DRSC04298 | -1.12 | – | – |
| CG6661 | DRSC10687 | -1.05 | -1.53 | 0.599 |
| mmy | DRSC02002 | 1.46 | 0.292 | – |
| CG30062 | DRSC21737 | 0.804 | 0.123 | – |
| Gdi | DRSC03330 | -0.0358 | -1.59 | – |
| CG8834 | DRSC07283 | 0.377 | 1.67 | – |
| CG18095 | DRSC01948 | 0.038 | -0.682 | – |
| CG31418 | DRSC21780 | 0.289 | 0.708 | – |
| Cpr67B | DRSC10373 | -0.105 | -1.82 | – |
| osp | DRSC01409 | -0.0954 | 0.0869 | – |
| osp | DRSC03585 | -1.94 | -1.61 | – |
| CG7715 | DRSC16301 | -0.512 | -0.0279 | – |
| Rab3-GEF | DRSC19954 | 0.573 | 1.44 | – |
| Rab3-GEF | DRSC19955 | 1.7 | 0.903 | – |
| Rab3-GEF | DRSC19956 | -0.734 | 1.42 | – |
| CG15475 | DRSC02486 | 0.38 | -0.0144 | – |
| CG17778 | DRSC18504 | 0.048 | 2.58 | – |
| mi | DRSC04498 | -1.74 | 0.317 | – |
| CG17193 | DRSC15187 | – | -0.559 | – |
| CG13295 | DRSC09969 | -1.87 | -1.15 | – |
| mAcon1 | DRSC01853 | -0.593 | -1.36 | – |
| CG13014 | DRSC19533 | 1.33 | -0.00135 | – |
| CG9988 | DRSC16587 | 1.57 | -0.506 | – |
| CG7600 | DRSC09681 | -1.03 | 1.82 | – |
| myo | DRSC17174 | -0.854 | -0.00339 | – |
| Fur2 | DRSC19817 | 0.0062 | 1.68 | – |
| lobo | DRSC14662 | 0.584 | 0.223 | – |
| lobo | DRSC14663 | 0.152 | -0.428 | – |
| Grx3 | DRSC02966 | 0.506 | -1.74 | – |
| CG15019 | DRSC08473 | 1.42 | -0.724 | – |
| CG15912 | DRSC18105 | -0.324 | -0.793 | – |
| trem | DRSC15575 | 1.58 | -0.155 | – |
| cup | DRSC03516 | -0.793 | 0.339 | – |
| IA-2 | DRSC00304 | 2.29 | -1.36 | -1.01 |
| IA-2 | DRSC00652 | -0.405 | -1.73 | – |
| IA-2 | DRSC23335 | -0.227 | -0.583 | – |
| Dbp73D | DRSC11142 | 0.509 | -0.439 | -1.7 |
| SPE | DRSC15135 | -1.42 | -0.263 | – |
| CG3281 | DRSC15470 | 0.299 | -0.769 | – |
| MED6 | DRSC16500 | 3.05 | 6.64 | – |
| Atg12 | DRSC09803 | 2.15 | 1.59 | – |
| CG31126 | DRSC14623 | 2.78 | -0.137 | – |
| inaC | DRSC07632 | -0.0192 | 4.11 | – |
| RhoGAP68F | DRSC10717 | 1.45 | 0.219 | – |
| CG11839 | DRSC14398 | 0.25 | -0.002 | – |
| Cnot4 | DRSC02830 | 0.851 | 1.32 | – |
| Cnot4 | DRSC02831 | 1.61 | -2.06 | – |
| slim | DRSC06921 | -1.15 | 0.981 | – |
| Hs3st-B | DRSC20067 | 2.18 | 0.458 | – |
| CG31710 | DRSC01089 | 1.61 | 0.551 | 1.73 |
| CG31710 | DRSC22863 | 2.65 | 0.188 | – |
| CG15369 | DRSC18041 | 0.416 | -0.224 | 0.0721 |
| Hsc70-2 | DRSC16710 | 2.23 | 2.49 | – |
| CG11726 | DRSC09858 | 0.38 | 0.281 | – |
| Rcd5 | DRSC08180 | -0.327 | 2.07 | – |
| CG13559 | DRSC04197 | 1.76 | 0.0609 | – |
| lncRNA:sphinx | DRSC17199 | 2.4 | 1.11 | – |
| cGlr2 | DRSC04017 | 1.4 | 1.13 | – |
| spict | DRSC02157 | -0.0687 | -2.33 | – |
| CG9921 | DRSC20220 | -0.585 | -0.0683 | – |
| CG42232 | DRSC15018 | -0.664 | 0.242 | – |
| CG42232 | DRSC15019 | -1.3 | 2.04 | – |
| CG42812 + CG42811 | DRSC15367 | -1.46 | – | – |
| CG42812 + CG42811 | DRSC15368 | -0.0125 | -1.34 | – |
| CG12432 (retired record) | DRSC19455 | 0.482 | 0.00932 | – |
| rogdi | DRSC10906 | -2.55 | 0.783 | -0.999 |
| CG15561 | DRSC15100 | -0.0479 | 2.23 | – |
| CG13856 | DRSC14706 | 0.449 | 0.205 | – |

7 entries from above, ordered by “droplet/nuclear area B-score, replicate 1”, lowest first.
| predicted target | amplicon | droplet/nuclear area B-score, replicate 1 | droplet/nuclear area B-score, replicate 2 | droplet/nuclear area B-score, replicate 3 |
| --- | --- | --- | --- | --- |
| inaC | DRSC07632 | -0.0192 | 4.11 | – |
| CG11839 | DRSC14398 | 0.25 | -0.002 | – |
| CG3281 | DRSC15470 | 0.299 | -0.769 | – |
| RhoGAP68F | DRSC10717 | 1.45 | 0.219 | – |
| Atg12 | DRSC09803 | 2.15 | 1.59 | – |
| CG31126 | DRSC14623 | 2.78 | -0.137 | – |
| MED6 | DRSC16500 | 3.05 | 6.64 | – |
